Where “and” joins values, the source holds several entries; their conditions need not be identical. Equal values may be shown once. In all, about 580,000 compounds went through this assay and about 6,100 (1.1%) were called active. The shares of active, inactive and inconclusive entries below differ from those in the screen. The call rests on the fitted dose curve; in most records, active means well fitted inhibition curve with a large enough effect; inconclusive means small, poorly fitted or top-dose-only effect, or another doubt; inactive means no such curve, though single readings can be large or run the other way. Potencies beside an inconclusive call are fits to weak or partial responses and may not hold up.
Each compound was assayed against Polyunsaturated fatty acid lipoxygenase ALOX12 (Homo sapiens) (UniProt P18054) (assay: Primary qHTS assay for inhibitors of human arachidonate 12S-lipoxygenase (ALOX12): Round 2). Settings: purified 12hLO, xylenol orange hydroperoxide absorbance; activity change, negative = inhibition: at 108 µM (top of the series) unless noted.
In short: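 Hydroperoxide product was detected by ferrous iron/xylenol orange as the 573 to 405 nm absorbance ratio. Arachidonic acid at 40 uM (final) was turned over for 30 min at room temperature by 150 nM human 12hLO, pH 7.0 Hepes buffer, after 15 min compound preincubation.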
On the % scale 0 is the no-effect control and ±100 the full control effect; potency means the concentration at half of the fitted maximal effect.

Sequences of proteins named here, by UniProt entry; tags and fusion partners are left off. A change or cut given only in a name is not applied to a line headed by its entry.
UniProt P18054: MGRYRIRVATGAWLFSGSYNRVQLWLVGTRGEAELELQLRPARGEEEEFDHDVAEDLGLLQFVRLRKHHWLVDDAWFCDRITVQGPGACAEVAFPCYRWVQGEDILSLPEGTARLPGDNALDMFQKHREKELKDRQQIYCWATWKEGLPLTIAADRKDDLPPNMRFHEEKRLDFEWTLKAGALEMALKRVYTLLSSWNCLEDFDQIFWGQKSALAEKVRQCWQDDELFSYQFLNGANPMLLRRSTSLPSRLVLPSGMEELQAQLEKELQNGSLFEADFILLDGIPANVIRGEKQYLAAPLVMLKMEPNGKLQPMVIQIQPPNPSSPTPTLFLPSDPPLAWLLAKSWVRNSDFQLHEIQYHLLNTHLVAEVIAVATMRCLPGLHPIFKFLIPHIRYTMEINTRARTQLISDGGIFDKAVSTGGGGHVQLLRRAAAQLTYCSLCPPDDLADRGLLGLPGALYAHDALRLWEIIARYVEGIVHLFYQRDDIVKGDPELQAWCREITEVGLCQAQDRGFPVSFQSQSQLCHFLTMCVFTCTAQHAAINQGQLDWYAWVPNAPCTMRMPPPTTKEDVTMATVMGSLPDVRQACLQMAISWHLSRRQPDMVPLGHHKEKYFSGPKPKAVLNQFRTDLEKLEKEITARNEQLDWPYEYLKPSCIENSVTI

SMILES | Potency | activity change, negative = inhibition
O=C(c1ccc(Cl)cc1)N1CCC(c2nc3c(nnn3Cc3ccccc3F)c(=O)[nH]2)CC1 | inconclusive: 44.7 µM [inhibitor, partial curve, poor fit] | 
CC(NC(=O)COC(=O)/C=C/c1cccc(F)c1)c1ccccc1 (stereo unspecified) | inactive | 
COC(=O)CSc1nc2ccsc2c(=O)n1Cc1ccco1 | inactive | 
O=C(c1ccccn1)N1CCC2(CC1)NC(=O)N(Cc1ccc(Cl)cc1)C2=O | inactive | 
COC(=O)c1[nH]c2cccc(OC)c2c1NC(=O)CN1CCN(c2cccc(OC)c2)C(C)C1 (stereo unspecified) | inconclusive: 112 µM [inhibitor, partial curve, poor fit] | 
CCCCC(=O)Nc1ccc2c(c1)nc1n2CCOC1 | inactive | 
Cc1cccc(C)c1OCC(=O)NNC(=S)NC(=O)C1CC1 | inconclusive: 39.8 µM [inhibitor, single point] | 
O=C(O)c1ccccc1NS(=O)(=O)c1ccc(NN=Cc2cccc(Cl)c2)c([N+](=O)[O-])c1 | inconclusive: 35.5 µM [inhibitor, partial curve, poor fit] | 
Brc1ccc(C2=CC(c3ccco3)n3nnnc3N2)cc1 (stereo unspecified) | inconclusive: 39.8 µM [inhibitor, partial curve, poor fit] | 
COc1ccccc1N1CCN(CC(O)COc2cccc3ccccc23)CC1 (stereo unspecified) | inconclusive: 28.2 µM [inhibitor, partial curve, poor fit] and inconclusive: 44.7 µM [inhibitor, partial curve, poor fit] | 
CCCc1cc(=O)oc2cc(OCC(=O)NCc3ccc(S(N)(=O)=O)cc3)ccc12 | inconclusive: 89.1 µM [inhibitor, single point] | 
O=C(NCCCc1ccccc1)c1ccc2c(c1)sc1nc(-c3ccc(F)cc3)cn12 | inconclusive: 50.1 µM [inhibitor, partial curve, poor fit] | 
COc1ccc(-n2c(-c3ccc(Br)cc3)c[n+]3c2CCCCC3)cc1 | inconclusive: 126 µM [inhibitor, single point] | 
OC(COc1ccc(F)cc1Cl)CN1CCC(Cc2ccccc2)CC1 (stereo unspecified) | inconclusive: 44.7 µM [inhibitor, partial curve] | 
CCCCC(=O)Nc1nnc(-c2ccc(OC)cc2)s1 | inconclusive: 89.1 µM [inhibitor, single point] | 
Cc1ccccc1CN1C(=O)c2ccccc2Sc2ccc(C(=O)NCCCN3CCOCC3)cc21 | inconclusive: 89.1 µM [inhibitor, partial curve, poor fit] and inconclusive: 89.1 µM [inhibitor, single point] | 
Cc1noc(C)c1-c1nc(Nc2ccc(F)cc2)c2ccccc2n1 | active: 22.4 µM | 
CCc1ccc(NC(=O)N2CCc3[nH]c4ccc(F)cc4c3C2)cc1 | inconclusive: 15.8 µM [inhibitor, partial curve] | 
Cc1ccc(Sc2c(C)nn(-c3ccccc3)c2OC(=O)CC(C)C)cc1 | inconclusive: 112 µM [inhibitor, single point] | 
Cc1nc2cnc(N3CCN(C)CC3)nc2n(CCC#N)c1=O | inconclusive: 39.8 µM [inhibitor, single point] | 
OC1(C#CCN2CCCC2)c2ccccc2-c2ccccc21 | inconclusive: 44.7 µM [inhibitor, partial curve, poor fit] | 
Cc1nc(Cc2nn3c(-c4ccc(Cl)cc4F)nnc3s2)cs1 | inconclusive: 39.8 µM [inhibitor, partial curve, poor fit] | 

SMILES | Potency | activity change, negative = inhibition
COc1cc(NS(=O)(=O)c2ccc(Nc3nc(-c4ccccc4)cs3)cc2)nc(OC)n1 | inconclusive: 10 µM [inhibitor, full curve, poor fit] | 
COC(=O)[C@]1(C)N[C@H](CN(C)S(=O)(=O)c2ccc(C(F)(F)F)cc2)[C@@H]2C(=O)N(C)C(=O)[C@@H]21 | inconclusive: 50.1 µM [inhibitor, partial curve, poor fit] | 
CCCCN(C)C(=O)Cn1ccn2nc(-c3ccccc3)c(CO)c2c1=O | inconclusive: 79.4 µM [inhibitor, single point] | 
CN(C)/C=N/C(=S)Nc1ccc(F)cc1 | inconclusive: 50.1 µM [inhibitor, partial curve, poor fit] | 
O=C(CCc1c[nH]c2ccccc12)Nc1ccc(F)c(Cl)c1 | inconclusive: 50.1 µM [inhibitor, partial curve, poor fit] | 
CCCN(CCC)C[C@@H]1CCCCN1CCNC(=O)N1c2ccccc2C(=O)Nc2cccnc21 | inconclusive: 12.6 µM [inhibitor, partial curve, poor fit] | 
Cc1ccc(C(OCC(C)(C)C[N+](C)(C)C)c2ccccc2)cc1 (stereo unspecified) | active: 20 µM and active: 44.7 µM | 
CC(c1ccccc1)N1CCc2[nH]c(=S)[nH]c(=O)c2C1 (stereo unspecified) | inconclusive: 3.55 µM [inhibitor, full curve, poor fit] | 
CCOC(=O)C(C)Oc1ccc2c(C)c(CCC(C)C)c(=O)oc2c1 (stereo unspecified) | inactive | 
Cc1ccc(OCCCCCN2CCOCC2)cc1 | inactive | 
COC1CCC12CCN(C(=O)C1CCCCC1)CC2 (stereo unspecified) | inactive | 
CCN(CCCNC(=O)CN1N=C(c2ccc(C)cc2)CCC1=O)c1ccccc1 | inconclusive: 50.1 µM [inhibitor, partial curve, poor fit] | 
O=C(NC1CCCc2ccccc21)c1ccc([N+](=O)[O-])cc1 (stereo unspecified) |  | inconclusive: -38% [inhibitor]
O=C(CN1CCN(S(=O)(=O)c2cccs2)CC1)NCC1CCCCC1 | inconclusive: 126 µM [inhibitor, single point] | 
Cc1c(C#N)c2ccccc2n1CC(=O)NCCc1c[nH]c2ccccc12 | inconclusive: 112 µM [inhibitor, partial curve, poor fit] | 
CCC(=O)N(C1=C(NC(C)C)C(=O)c2ccccc2C1=O)C(C)C | inactive | 
Cc1ccc(/C=c2\s/c(=C(/C#N)C(=O)N3CCCC3)n(Cc3ccco3)c2=O)s1 | inconclusive: 0.251 µM [inhibitor, full curve, poor fit] | 
Cc1cc(N)cc(C)c1-c1c(Br)cc(N)cc1Br | inconclusive: 89.1 µM [inhibitor, partial curve, poor fit] | 
CC1=CC23C(=O)C(C=C(CO)[C@@H](O)[C@]2(O)[C@H]1O)[C@H]1[C@@H](C[C@H]3C)C1(C)C (stereo partly specified) | inactive | 
Cn1cnc2c1c(=O)n(CC(=O)N1CC(C(=O)N3CCCCC3)Oc3ccccc31)c(=O)n2C (stereo unspecified) | inactive | 
c1ccc2c(c1)oc1c(N3CCOCC3)ncnc12 | inconclusive: 44.7 µM [inhibitor, partial curve, poor fit] | 
CN1CCN(C(=S)NC(CC(=O)c2ccccc2)c2ccccc2)CC1 (stereo unspecified) | inactive | 

Some values from the results shown.
Under Potency, c1ccc2c(c1)oc1c(N3CCOCC3)ncnc12 is listed with inconclusive: 44.7 µM [inhibitor, partial curve, poor fit]
Under Potency, Cc1cc(N)cc(C)c1-c1c(Br)cc(N)cc1Br is listed with inconclusive: 89.1 µM [inhibitor, partial curve, poor fit]
Under Potency, CN1CCN(C(=S)NC(CC(=O)c2ccccc2)c2ccccc2)CC1 (stereo unspecified) is listed with inactive

Later entries.

SMILES | Potency | activity change, negative = inhibition
Cc1cc(C)cc(-n2ncc3c(OCC(=O)NC4CCS(=O)(=O)C4)ncnc32)c1 (stereo unspecified) | inactive | 
S=C(Nc1ccccc1Cl)Nc1ccc(Cl)cc1Cl | inconclusive: 70.8 µM [inhibitor, partial curve, poor fit] | 
COCCNC(=O)/C(C#N)=C/c1cc(Br)c(O)c(OC)c1 | inactive | 
NC(=O)/C(=C\c1ccncc1)c1cccc2ccccc12 | inactive | 
CC(Sc1nncn1C)C(=O)Nc1ccc2ccccc2c1 (stereo unspecified) | inconclusive: 39.8 µM [inhibitor, partial curve] | 
O=C(Nc1ccc(N2CCCCC2)c2ccncc12)C1CCN(C(=O)C2CC2)CC1 | inactive | 
CCCC(c1nnnn1Cc1ccc(OC)cc1)N1CCN(c2ccccc2OC)CC1 (stereo unspecified) | inconclusive: 44.7 µM [inhibitor, partial curve, poor fit] | 
CCc1nnc(NC(=O)C2CC(c3ccccc3)=NO2)s1 (stereo unspecified) | inconclusive: 100 µM [inhibitor, partial curve, poor fit] | 
Cc1ccc(Cl)cc1NC(=S)Nn1cnnc1 | inconclusive: 39.8 µM [inhibitor, partial curve, poor fit] | 
c1ccc(Cn2nnc3c(N4CCc5ccccc5C4)ncnc32)cc1 | inconclusive: 126 µM [inhibitor, single point] | 
CC(C)CSc1ccc(S(=O)(=O)NCC(=O)O)cc1[N+](=O)[O-] | inactive | 
COc1cccc(Cn2c(=O)c(C)nc3cnc(N4CCN(C)CC4)nc32)c1 | inconclusive: 31.6 µM [inhibitor, single point] | 
c1ccc(-c2csc3ncnc(Oc4ccc5ccccc5c4)c23)cc1 | inactive | 
O=C(/C=C/c1ccccc1Cl)c1cccnc1 | inactive | 
Cc1ccc(F)c(S(=O)(=O)NC(=O)C2(C)CCN2C(=O)CC(c2ccccc2)c2ccccc2)c1 (stereo unspecified) | inconclusive: 31.6 µM [inhibitor, partial curve, poor fit] | 
Cc1ccccc1-n1ncc2c1CC(C)(C)CC2NC(=O)c1snnc1C (stereo unspecified) | inactive | 
Cc1ccc(-c2cc(C(=O)N3CCN(C(=O)C4CC4)CC3)c3ccccc3n2)o1 | active: 22.4 µM | 
COc1cc2c(cc1OC)C(Cc1ccccc1[N+](=O)[O-])=NCC2 | inconclusive: 39.8 µM [inhibitor, partial curve, poor fit] | 
CCNC(=O)N1CC(C(=O)N2CCCC(C(=O)OCC)C2)CC(c2ccc(F)c(C)c2)C1 (stereo unspecified) | inactive | 
CCc1ccc2oc(C(=O)Nc3cccc(Cl)c3)cc(=O)c2c1 | inactive | 
CC(C)C1=NOC2(CCN(C(=O)c3ccc4c(c3)OCO4)CC2)C1 | inconclusive: 28.2 µM [inhibitor, full curve] | 
Cc1cc(C(=O)Nc2c(C)nn(Cc3ccc(F)cc3)c2C)on1 | inconclusive: 112 µM [inhibitor, single point] | 
